Results reported in the supplement of paper PMC7125110.
± gives the standard error. Many entries were measured with a wide error.

B1: glmS ribozyme (parent)
chain: AUAAAAGCGCCAGAACUACAGAAAUGUAGUUGACGAGGAGGAGGUUUAUCGAAUUUUCGGCGGAUGCCUCCAAA

Variants of: B1
Test: self-cleavage kobs at 160 uM GlcN6P; higher = faster cleavage; RNA array
Settings: with glucosamine-6-phosphate
In short: (§1)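 Sequenced MiSeq chips were the platform: E. coli RNA polymerase transcribed barcoded ribozyme variants on them in situ, and a hybridised Cy3 probe tracked these at 37 °C. After glucosamine-6-phosphate (40 μM to 10 mM) in HEPES/KCl/Mg(OAc)2 buffer was flowed in, tiles were imaged over ~14 h. Signals normalised to baseline and to non-cleaving reference variants were reduced to per-tile medians and fit to one- or two-exponential decays to obtain kobs. kcat and KM were derived through weighted Michaelis–Menten fits across concentrations.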

Row | Variant | self-cleavage kobs at 160 uM GlcN6P
1 | G13C | < 1e-05 s⁻¹
2 | G13C A15G U45A | 2.11e-05 ± 1.9e-05 s⁻¹
3 | G13C G32U | 3.28e-05 ± 1.7e-05 s⁻¹
4 | G13U G29U C70A | 2.37e-05 ± 2.1e-05 s⁻¹
5 | G13U U31A A36G G38A C50G U56C | 2.6e-05 ± 2.3e-05 s⁻¹
6 | G13U U47G | 2.37e-05 ± 1.2e-05 s⁻¹
7 | G13U U54G C70G | 6.1e-05 ± 3.4e-05 s⁻¹
8 | A14G A52U | 2.9e-05 ± 1.6e-05 s⁻¹
9 | A14G A64C | 2.87e-05 ± 1.8e-05 s⁻¹
10 | A14G A64U | 1.83e-05 ± 1.5e-05 s⁻¹
11 | A15C C58A C67G C71G | 3.27e-05 ± 2.2e-05 s⁻¹
12 | A15C C58G C70A | 1.74e-05 ± 1.3e-05 s⁻¹
13 | A15C G66U | 1.79e-05 ± 1.3e-05 s⁻¹
14 | A15C U45C | 2.83e-05 ± 2.4e-05 s⁻¹
15 | A15G C58A C68G | 7.69e-05 ± 4.1e-05 s⁻¹
16 | A15G C58A U69G | 4.39e-05 ± 3.4e-05 s⁻¹
17 | A15G G51U C58G C71G | 2.83e-05 ± 1.9e-05 s⁻¹
18 | A15G U30A C67A C70U | 0.00013 ± 7.1e-05 s⁻¹
19 | A15G U47G G60A C61U C68A | 5.19e-05 ± 3.2e-05 s⁻¹
20 | A15U G66C C68A | 2.94e-05 ± 2.8e-05 s⁻¹
21 | C16A C68U | 1.79e-05 ± 1.3e-05 s⁻¹
22 | C16A C70U C71A | 3.14e-05 ± 2.2e-05 s⁻¹

Exported as a markdown table: part of the list above

| Row | Variant | self-cleavage kobs at 160 uM GlcN6P |
| --- | --- | --- |
| 3 | G13C G32U | 3.28e-05 ± 1.7e-05 s⁻¹ |
| 5 | G13U U31A A36G G38A C50G U56C | 2.6e-05 ± 2.3e-05 s⁻¹ |
| 10 | A14G A64U | 1.83e-05 ± 1.5e-05 s⁻¹ |
| 14 | A15C U45C | 2.83e-05 ± 2.4e-05 s⁻¹ |

Following part:

Row | Variant | self-cleavage kobs at 160 uM GlcN6P
23 | C16G U69A | 1.87e-05 ± 1.7e-05 s⁻¹
24 | C16U G37C G59U | 2.94e-05 ± 2.7e-05 s⁻¹
25 | C16U G41A C71A | 2.37e-05 ± 1.9e-05 s⁻¹
26 | G21A G44U | 2.8e-05 ± 1.6e-05 s⁻¹
27 | G26U C67G | 5.12e-05 ± 2.9e-05 s⁻¹
28 | G29A U31G U54G | 3.14e-05 ± 2.6e-05 s⁻¹
29 | G29A U46C | 2.27e-05 ± 2.1e-05 s⁻¹
30 | G29C C58A | 2.02e-05 ± 1.8e-05 s⁻¹
31 | G29U C58U C68U | 3.51e-05 ± 2.3e-05 s⁻¹
32 | U30C C71G | 2.73e-05 ± 1.8e-05 s⁻¹
33 | U30G C70G | 2.84e-05 ± 1.5e-05 s⁻¹
34 | U30G G66U | 3.71e-05 ± 2.3e-05 s⁻¹
35 | U30G U46A G66C | 2.07e-05 ± 1.9e-05 s⁻¹
36 | U30G U65A | 4.36e-05 ± 2.2e-05 s⁻¹
37 | U31C U46A | 2.28e-05 ± 1.6e-05 s⁻¹
38 | U31C U47C | 5.21e-05 ± 2.7e-05 s⁻¹
39 | U31G A39U C71G | 1.67e-05 ± 1.1e-05 s⁻¹
40 | U31G G66C | 1.96e-05 ± 1.7e-05 s⁻¹
41 | U31G U56G C71A | 2.73e-05 ± 1.8e-05 s⁻¹
42 | G32A A53G U56G | 1.96e-05 ± 1.9e-05 s⁻¹
43 | G32A C70A | 2.7e-05 ± 1.5e-05 s⁻¹
44 | G32C U69G | 0.00034 ± 0.00022 s⁻¹

Row | Variant | self-cleavage kobs at 160 uM GlcN6P
45 | G32U A53G G59C A64G | 4.19e-05 ± 3.4e-05 s⁻¹
46 | G32U C70A | 9.5e-05 ± 5.9e-05 s⁻¹
47 | G32U U47G | 2.13e-05 ± 1.8e-05 s⁻¹
48 | G32U U69C | 2.73e-05 ± 1.6e-05 s⁻¹
49 | A33C U55G | 2.27e-05 ± 1.6e-05 s⁻¹
50 | A33G C67G | 1.91e-05 ± 1.8e-05 s⁻¹
51 | G37A A53C | 1.91e-05 ± 1.2e-05 s⁻¹
52 | G37A U55C U56G | 1.37e-05 ± 1.3e-05 s⁻¹
53 | G37C C50A C58A U69A | 5.99e-05 ± 3.2e-05 s⁻¹
54 | G37U U49A C61G C70G | 2.71e-05 ± 2.6e-05 s⁻¹
55 | G38U A39G C50G | 5.57e-05 ± 2.9e-05 s⁻¹
56 | G38U U49A A53C C70G | 2.74e-05 ± 2.1e-05 s⁻¹
57 | A39C A52G | 2.3e-05 ± 2e-05 s⁻¹
58 | A39C U46A | 1.82e-05 ± 1.8e-05 s⁻¹
59 | A39U A42U U55G G66U | 2.69e-05 ± 1.5e-05 s⁻¹
60 | A39U C68G | 2.1e-05 ± 1.3e-05 s⁻¹
61 | A39U G43A | 2.55e-05 ± 1.3e-05 s⁻¹
62 | G40A C67A | 3.11e-05 ± 2.2e-05 s⁻¹
63 | G40C C70A | 3.08e-05 ± 1.8e-05 s⁻¹
64 | G41A U54C | 3.01e-05 ± 2.2e-05 s⁻¹
65 | G41U U65A | 2.12e-05 ± 1.1e-05 s⁻¹
66 | A42G G43A C67U C68U | 3.25e-05 ± 2.9e-05 s⁻¹

Row | Variant | self-cleavage kobs at 160 uM GlcN6P
67 | A42U C70U | 1.8e-05 ± 1.2e-05 s⁻¹
68 | A42U U54G | 3.39e-05 ± 2e-05 s⁻¹
69 | A42U U55C | 1.92e-05 ± 1.4e-05 s⁻¹
70 | G44U U55G | 3.4e-05 ± 2.2e-05 s⁻¹
71 | U45C C71A | 4.2e-05 ± 3.5e-05 s⁻¹
72 | U45G A52G | 3.15e-05 ± 3.1e-05 s⁻¹
73 | U46A U69G | 2.9e-05 ± 1.5e-05 s⁻¹
74 | U46G C50A C67G | 5.25e-05 ± 2.9e-05 s⁻¹
75 | U46G G66U C67U | 2.54e-05 ± 2.5e-05 s⁻¹
76 | A48U C67U | 1.9e-05 ± 1.1e-05 s⁻¹
77 | A48U U55A U69G | 3.66e-05 ± 2.3e-05 s⁻¹
78 | A48U U69C | 1.82e-05 ± 1.3e-05 s⁻¹
79 | U49G C67U | 1.67e-05 ± 1.6e-05 s⁻¹
80 | U49G U69G | 3.99e-05 ± 2.8e-05 s⁻¹
81 | C50A A53C U57G C58G | 4.93e-05 ± 2.7e-05 s⁻¹
82 | C50A C67U | 2.01e-05 ± 1.2e-05 s⁻¹
83 | C50A C67U C68A | 0.00011 ± 5.9e-05 s⁻¹
84 | C50G C68G | 0.00095 ± 0.00049 s⁻¹
85 | C50G G66U | 0.000173 ± 9.3e-05 s⁻¹

Variants of: B1
Test: self-cleavage kobs at 2500 uM GlcN6P; higher = faster cleavage; RNA array
Settings: with glucosamine-6-phosphate
In short: as §1

Row | Variant | self-cleavage kobs at 2500 uM GlcN6P
86 | A15C C58A C67G C71G | 3.79e-05 ± 2.6e-05 s⁻¹
87 | A15G C58A C68G | 4.01e-05 ± 2e-05 s⁻¹
88 | C16U G37C G59U | 5.45e-05 ± 3.8e-05 s⁻¹
89 | G38U A39G C50G | 3.75e-05 ± 3e-05 s⁻¹
90 | C50A C67U | 2.08e-05 ± 1e-05 s⁻¹
91 | C50A C67U C68A | 0.000109 ± 6.6e-05 s⁻¹

Variants of: B1
Test: self-cleavage kobs at 10000 uM GlcN6P; higher = faster cleavage; RNA array
Settings: with glucosamine-6-phosphate
In short: as §1

Row | Variant | self-cleavage kobs at 10000 uM GlcN6P
92 | A15G U47G G60A C61U C68A | 3.83e-05 ± 2.3e-05 s⁻¹
93 | G29U C58U C68U | 3.68e-05 ± 2.3e-05 s⁻¹
94 | G38U A39G C50G | 2.95e-05 ± 2.2e-05 s⁻¹
95 | C50A A53C U57G C58G | 2.51e-05 ± 1.9e-05 s⁻¹
